Measured values taken from the supplement of paper PMC12823440, “Inhibitors supercharge kinase turnover through native proteolytic circuits” (Nature, 2025).
Structures can show the parent of a compound that is named as a salt. The list shows a part of the results. Hit calls seldom repeat between salt and free forms of one compound.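 Kinases, fused to nanoluciferase, were expressed in K562 cells; luminescence was measured every 4 h from 2 to 18 h as percent of control (DMSO = 100%, positive control = 0%). A time point is decreased if signal falls significantly (2 sigma). Hits were called by the authors by a rule that is not shown; the count of time points alone does not decide it.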

Protein sequences, listed by entry. Tags and fused reporters are not part of them. Lines headed by an entry give the natural chain unless they say otherwise; changes in a name come on top.
UniProt P29597: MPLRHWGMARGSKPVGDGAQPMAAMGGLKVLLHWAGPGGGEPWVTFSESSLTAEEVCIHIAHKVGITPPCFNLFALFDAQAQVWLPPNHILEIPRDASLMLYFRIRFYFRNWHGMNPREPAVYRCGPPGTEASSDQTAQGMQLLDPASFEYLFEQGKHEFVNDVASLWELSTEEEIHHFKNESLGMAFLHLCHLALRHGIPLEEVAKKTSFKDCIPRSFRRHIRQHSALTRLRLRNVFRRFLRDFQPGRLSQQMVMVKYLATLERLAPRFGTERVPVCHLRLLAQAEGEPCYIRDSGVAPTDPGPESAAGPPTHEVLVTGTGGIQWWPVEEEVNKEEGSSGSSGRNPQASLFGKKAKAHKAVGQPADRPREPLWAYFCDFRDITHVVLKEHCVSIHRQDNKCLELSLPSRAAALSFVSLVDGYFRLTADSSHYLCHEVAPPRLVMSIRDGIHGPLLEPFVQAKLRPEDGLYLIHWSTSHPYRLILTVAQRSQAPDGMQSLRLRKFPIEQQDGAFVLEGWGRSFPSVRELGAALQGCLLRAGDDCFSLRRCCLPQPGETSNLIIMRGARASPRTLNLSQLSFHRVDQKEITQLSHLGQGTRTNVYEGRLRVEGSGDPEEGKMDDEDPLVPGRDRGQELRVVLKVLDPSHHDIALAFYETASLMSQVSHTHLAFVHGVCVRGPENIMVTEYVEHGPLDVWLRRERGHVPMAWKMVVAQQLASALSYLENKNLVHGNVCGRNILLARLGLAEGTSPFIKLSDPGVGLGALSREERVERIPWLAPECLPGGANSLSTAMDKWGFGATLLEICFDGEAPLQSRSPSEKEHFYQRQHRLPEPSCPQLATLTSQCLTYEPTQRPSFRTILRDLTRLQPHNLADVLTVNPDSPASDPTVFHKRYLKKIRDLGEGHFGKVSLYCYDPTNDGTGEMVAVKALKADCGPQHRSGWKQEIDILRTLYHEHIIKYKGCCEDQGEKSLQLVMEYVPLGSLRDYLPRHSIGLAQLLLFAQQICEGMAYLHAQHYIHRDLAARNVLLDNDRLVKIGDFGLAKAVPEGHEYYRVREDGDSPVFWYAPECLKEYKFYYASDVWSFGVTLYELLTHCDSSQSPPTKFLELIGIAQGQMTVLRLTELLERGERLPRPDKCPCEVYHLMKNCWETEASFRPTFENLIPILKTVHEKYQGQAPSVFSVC

These molecules were tested against TYK2 (UniProt P29597) (assay: number of time points (of 5) at which kinase-Nluc abundance scored as decreased, DMSO-normalised (count); higher = more persistent destabilization). Conditions: K562; 2-18 h.
With CCOC(=O)c1c2c3c(cccc3[nH]c1=O)C(=O)c1ccccc1-2 (10 µM) the “number of time points” value was 0. With O=C(c1ccc(Nc2nccc(-c3cc4ccccc4s3)n2)cc1)N1CCC(N2CCCC2)CC1 (2.5 µM) the “number of time points” value was 0. Cc1ccc(-c2nn(C(C)(C)CNC(=O)c3ccncc3)c3ncnc(N)c23)cc1 (2.5 µM) was tested, and the “number of time points” value was 0. O=C(O)c1ccc(-c2c[nH]c3ncc(-c4ccccc4)cc23)cc1C1CCCC1 (2.5 µM) was tested, and the “number of time points” value was 0. CCOc1nc(Nc2ccc(C(=O)N3CCOCC3)cc2OC)nc2[nH]ccc12 [LRRK2 inhibitor 1] (2.5 µM) was tested, and the “number of time points” value was 0. For CN(CC(=O)N(Cc1ccc(C2CCCCC2)cc1)c1ccc(C(=O)O)c(O)c1)S(=O)(=O)c1c(F)c(F)c(F)c(F)c1F (2.5 µM), the “number of time points” value was 0. With Nc1nc2cc(-c3ccc4ncc(C(=O)N5CCOCC5)n4c3)ccc2o1 [Serabelisib] (10 µM) the “number of time points” value was 0. OCCN(CCO)c1ccc(C(c2ccc(Cl)cc2)c2ccc(N(CCO)CCO)cc2)cc1 (10 µM) was tested, and the “number of time points” value was 0. In the case of O=c1nc(N2CCOCC2)oc2c(-c3cccc4c3sc3ccccc34)cccc12 (10 µM), the “number of time points” value is reported as 0. In the case of c1ccc(-c2nn3c(c2-c2ccnc4cc(OCCN5CCOCC5)ccc24)CCC3)nc1 (10 µM), the “number of time points” value is reported as 0. In the case of O=C(Nc1ccc(Cl)c(Cl)c1)Nc1ccc2nnsc2c1 (10 µM), the “number of time points” value is reported as 0. In the case of N#C/C(=C(/N)Sc1ccc(N)cc1)c1ccccc1C(F)(F)F (10 µM), the “number of time points” value is reported as 0. For O=c1ccoc2cc(O)ccc12 [7-Hydroxy-4H-chromen-4-one] (10 µM), the “number of time points” value was 0. For COc1cc(C(=O)N2CCC(N3CCN(C)CC3)CC2)ccc1Nc1ncc2c(n1)N(C)c1ccccc1C(=O)N2C (10 µM), the “number of time points” value was 0. For CC(=O)Nc1nc2ccc(-c3cnc(C)c(NC(=O)OC4CCCCC4)c3)cc2s1 (10 µM), the “number of time points” value was 0. O=C1NC(=O)C(c2cn(-c3ccccc3)nc2-c2ccc(F)cc2)N1 (configuration not stated) (10 µM) was tested, and the “number of time points” value was 0. In the case of CCCCNC(=N)NC(=N)N [Buformin (hydrochloride)] (2.5 µM), the “number of time points” value is reported as 0. With C[C@H]1[C@H](OC(=O)CCC(=O)O)O[C@@H]2O[C@@]3(C)CC[C@H]4[C@H](C)CC[C@@H]1[C@@]24OO3 [Artesunate] (2.5 µM) the “number of time points” value was 2. COc1ncc(Nc2ncc([C@@H](C)N3CCN(S(C)(=O)=O)CC3)cc2-c2nc(C)nc(N)n2)cc1F (10 µM) was tested, and the “number of time points” value was 0. With COC1(C(=O)N[C@@H](C)c2ccc(-n3cc(F)cn3)nc2)CCC(c2nc(C)cc(Nc3cc(C)[nH]n3)n2)CC1 (stereo partly drawn) [trans-Pralsetinib] (2.5 µM) the “number of time points” value was 0. For CC(=O)NCCc1c[nH]c2ccc(O)cc12 [N-Acetyl-5-hydroxytryptamine] (10 µM), the “number of time points” value was 0. With O=[N+]([O-])c1ccc(Sc2cccc[n+]2[O-])c2nonc12 (2.5 µM) the “number of time points” value was 0. For COc1ccc(CNc2nc(N(CCO)CCO)nc3c2ncn3C(C)C)cc1 (2.5 µM), the “number of time points” value was 0. For CC(CCc1ccccn1)(CCc1ccccn1)C(=O)c1ccccc1 (10 µM), the “number of time points” value was 0. In the case of [O-][n+]1cccc(-c2nc3c(Cl)cccc3cc2[C@@H](Nc2ncnc3cccnc23)C(F)(F)F)c1 [Seletalisib] (10 µM), the “number of time points” value is reported as 0. Cc1cc2cc(Oc3ccnc(Nc4cccc(CS(=O)(=O)NCCN(C)C)c4)n3)ccc2[nH]1 [Sulfatinib] (10 µM) was tested, and the “number of time points” value was 3. For O=C1NC(=O)C(c2cnc3ccccn23)=C1c1cn2c3c(cc(F)cc13)CN(C(=O)N1CCCCC1)CC2 (2.5 µM), the “number of time points” value was 0. For Cc1ccc(-c2ncn(-c3ccc(Nc4nccc(-c5cccc(N6CCOCC6)c5)n4)cc3)n2)cn1 (10 µM), the “number of time points” value was 0. For COc1ccc2c(c1OC)OC1c3ccc(O)cc3OCC21 (configuration not stated) [Methylnissolin] (10 µM), the “number of time points” value was 0. In the case of Cn1cc(-c2ccc3nnc(C(F)(F)c4ccc5ncccc5c4)n3n2)cn1 (10 µM), the “number of time points” value is reported as 0. Nc1ncc(-c2ccc(C(=O)N3CCNCC3)cc2)nc1-c1ccc(C(F)(F)F)cc1 (10 µM) was tested, and the “number of time points” value was 0. With CN(C)Cc1cccc(N=C(c2ccccc2)c2c(O)[nH]c3cc(C(=O)N(C)C)ccc23)c1 (10 µM) the “number of time points” value was 0.
